# Measurements as given in the supplement of paper PMC7666118.
# By UniProt entry, the sequences of proteins in these tests, tags left out. Where a name states a change or a piece, a line headed by the entry shows the natural chain unless it says otherwise.
# UniProt O75896: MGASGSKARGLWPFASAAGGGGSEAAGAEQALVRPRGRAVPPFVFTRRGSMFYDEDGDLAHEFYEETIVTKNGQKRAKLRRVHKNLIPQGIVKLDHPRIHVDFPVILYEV
# UniProt Q5T4S7, whole entry: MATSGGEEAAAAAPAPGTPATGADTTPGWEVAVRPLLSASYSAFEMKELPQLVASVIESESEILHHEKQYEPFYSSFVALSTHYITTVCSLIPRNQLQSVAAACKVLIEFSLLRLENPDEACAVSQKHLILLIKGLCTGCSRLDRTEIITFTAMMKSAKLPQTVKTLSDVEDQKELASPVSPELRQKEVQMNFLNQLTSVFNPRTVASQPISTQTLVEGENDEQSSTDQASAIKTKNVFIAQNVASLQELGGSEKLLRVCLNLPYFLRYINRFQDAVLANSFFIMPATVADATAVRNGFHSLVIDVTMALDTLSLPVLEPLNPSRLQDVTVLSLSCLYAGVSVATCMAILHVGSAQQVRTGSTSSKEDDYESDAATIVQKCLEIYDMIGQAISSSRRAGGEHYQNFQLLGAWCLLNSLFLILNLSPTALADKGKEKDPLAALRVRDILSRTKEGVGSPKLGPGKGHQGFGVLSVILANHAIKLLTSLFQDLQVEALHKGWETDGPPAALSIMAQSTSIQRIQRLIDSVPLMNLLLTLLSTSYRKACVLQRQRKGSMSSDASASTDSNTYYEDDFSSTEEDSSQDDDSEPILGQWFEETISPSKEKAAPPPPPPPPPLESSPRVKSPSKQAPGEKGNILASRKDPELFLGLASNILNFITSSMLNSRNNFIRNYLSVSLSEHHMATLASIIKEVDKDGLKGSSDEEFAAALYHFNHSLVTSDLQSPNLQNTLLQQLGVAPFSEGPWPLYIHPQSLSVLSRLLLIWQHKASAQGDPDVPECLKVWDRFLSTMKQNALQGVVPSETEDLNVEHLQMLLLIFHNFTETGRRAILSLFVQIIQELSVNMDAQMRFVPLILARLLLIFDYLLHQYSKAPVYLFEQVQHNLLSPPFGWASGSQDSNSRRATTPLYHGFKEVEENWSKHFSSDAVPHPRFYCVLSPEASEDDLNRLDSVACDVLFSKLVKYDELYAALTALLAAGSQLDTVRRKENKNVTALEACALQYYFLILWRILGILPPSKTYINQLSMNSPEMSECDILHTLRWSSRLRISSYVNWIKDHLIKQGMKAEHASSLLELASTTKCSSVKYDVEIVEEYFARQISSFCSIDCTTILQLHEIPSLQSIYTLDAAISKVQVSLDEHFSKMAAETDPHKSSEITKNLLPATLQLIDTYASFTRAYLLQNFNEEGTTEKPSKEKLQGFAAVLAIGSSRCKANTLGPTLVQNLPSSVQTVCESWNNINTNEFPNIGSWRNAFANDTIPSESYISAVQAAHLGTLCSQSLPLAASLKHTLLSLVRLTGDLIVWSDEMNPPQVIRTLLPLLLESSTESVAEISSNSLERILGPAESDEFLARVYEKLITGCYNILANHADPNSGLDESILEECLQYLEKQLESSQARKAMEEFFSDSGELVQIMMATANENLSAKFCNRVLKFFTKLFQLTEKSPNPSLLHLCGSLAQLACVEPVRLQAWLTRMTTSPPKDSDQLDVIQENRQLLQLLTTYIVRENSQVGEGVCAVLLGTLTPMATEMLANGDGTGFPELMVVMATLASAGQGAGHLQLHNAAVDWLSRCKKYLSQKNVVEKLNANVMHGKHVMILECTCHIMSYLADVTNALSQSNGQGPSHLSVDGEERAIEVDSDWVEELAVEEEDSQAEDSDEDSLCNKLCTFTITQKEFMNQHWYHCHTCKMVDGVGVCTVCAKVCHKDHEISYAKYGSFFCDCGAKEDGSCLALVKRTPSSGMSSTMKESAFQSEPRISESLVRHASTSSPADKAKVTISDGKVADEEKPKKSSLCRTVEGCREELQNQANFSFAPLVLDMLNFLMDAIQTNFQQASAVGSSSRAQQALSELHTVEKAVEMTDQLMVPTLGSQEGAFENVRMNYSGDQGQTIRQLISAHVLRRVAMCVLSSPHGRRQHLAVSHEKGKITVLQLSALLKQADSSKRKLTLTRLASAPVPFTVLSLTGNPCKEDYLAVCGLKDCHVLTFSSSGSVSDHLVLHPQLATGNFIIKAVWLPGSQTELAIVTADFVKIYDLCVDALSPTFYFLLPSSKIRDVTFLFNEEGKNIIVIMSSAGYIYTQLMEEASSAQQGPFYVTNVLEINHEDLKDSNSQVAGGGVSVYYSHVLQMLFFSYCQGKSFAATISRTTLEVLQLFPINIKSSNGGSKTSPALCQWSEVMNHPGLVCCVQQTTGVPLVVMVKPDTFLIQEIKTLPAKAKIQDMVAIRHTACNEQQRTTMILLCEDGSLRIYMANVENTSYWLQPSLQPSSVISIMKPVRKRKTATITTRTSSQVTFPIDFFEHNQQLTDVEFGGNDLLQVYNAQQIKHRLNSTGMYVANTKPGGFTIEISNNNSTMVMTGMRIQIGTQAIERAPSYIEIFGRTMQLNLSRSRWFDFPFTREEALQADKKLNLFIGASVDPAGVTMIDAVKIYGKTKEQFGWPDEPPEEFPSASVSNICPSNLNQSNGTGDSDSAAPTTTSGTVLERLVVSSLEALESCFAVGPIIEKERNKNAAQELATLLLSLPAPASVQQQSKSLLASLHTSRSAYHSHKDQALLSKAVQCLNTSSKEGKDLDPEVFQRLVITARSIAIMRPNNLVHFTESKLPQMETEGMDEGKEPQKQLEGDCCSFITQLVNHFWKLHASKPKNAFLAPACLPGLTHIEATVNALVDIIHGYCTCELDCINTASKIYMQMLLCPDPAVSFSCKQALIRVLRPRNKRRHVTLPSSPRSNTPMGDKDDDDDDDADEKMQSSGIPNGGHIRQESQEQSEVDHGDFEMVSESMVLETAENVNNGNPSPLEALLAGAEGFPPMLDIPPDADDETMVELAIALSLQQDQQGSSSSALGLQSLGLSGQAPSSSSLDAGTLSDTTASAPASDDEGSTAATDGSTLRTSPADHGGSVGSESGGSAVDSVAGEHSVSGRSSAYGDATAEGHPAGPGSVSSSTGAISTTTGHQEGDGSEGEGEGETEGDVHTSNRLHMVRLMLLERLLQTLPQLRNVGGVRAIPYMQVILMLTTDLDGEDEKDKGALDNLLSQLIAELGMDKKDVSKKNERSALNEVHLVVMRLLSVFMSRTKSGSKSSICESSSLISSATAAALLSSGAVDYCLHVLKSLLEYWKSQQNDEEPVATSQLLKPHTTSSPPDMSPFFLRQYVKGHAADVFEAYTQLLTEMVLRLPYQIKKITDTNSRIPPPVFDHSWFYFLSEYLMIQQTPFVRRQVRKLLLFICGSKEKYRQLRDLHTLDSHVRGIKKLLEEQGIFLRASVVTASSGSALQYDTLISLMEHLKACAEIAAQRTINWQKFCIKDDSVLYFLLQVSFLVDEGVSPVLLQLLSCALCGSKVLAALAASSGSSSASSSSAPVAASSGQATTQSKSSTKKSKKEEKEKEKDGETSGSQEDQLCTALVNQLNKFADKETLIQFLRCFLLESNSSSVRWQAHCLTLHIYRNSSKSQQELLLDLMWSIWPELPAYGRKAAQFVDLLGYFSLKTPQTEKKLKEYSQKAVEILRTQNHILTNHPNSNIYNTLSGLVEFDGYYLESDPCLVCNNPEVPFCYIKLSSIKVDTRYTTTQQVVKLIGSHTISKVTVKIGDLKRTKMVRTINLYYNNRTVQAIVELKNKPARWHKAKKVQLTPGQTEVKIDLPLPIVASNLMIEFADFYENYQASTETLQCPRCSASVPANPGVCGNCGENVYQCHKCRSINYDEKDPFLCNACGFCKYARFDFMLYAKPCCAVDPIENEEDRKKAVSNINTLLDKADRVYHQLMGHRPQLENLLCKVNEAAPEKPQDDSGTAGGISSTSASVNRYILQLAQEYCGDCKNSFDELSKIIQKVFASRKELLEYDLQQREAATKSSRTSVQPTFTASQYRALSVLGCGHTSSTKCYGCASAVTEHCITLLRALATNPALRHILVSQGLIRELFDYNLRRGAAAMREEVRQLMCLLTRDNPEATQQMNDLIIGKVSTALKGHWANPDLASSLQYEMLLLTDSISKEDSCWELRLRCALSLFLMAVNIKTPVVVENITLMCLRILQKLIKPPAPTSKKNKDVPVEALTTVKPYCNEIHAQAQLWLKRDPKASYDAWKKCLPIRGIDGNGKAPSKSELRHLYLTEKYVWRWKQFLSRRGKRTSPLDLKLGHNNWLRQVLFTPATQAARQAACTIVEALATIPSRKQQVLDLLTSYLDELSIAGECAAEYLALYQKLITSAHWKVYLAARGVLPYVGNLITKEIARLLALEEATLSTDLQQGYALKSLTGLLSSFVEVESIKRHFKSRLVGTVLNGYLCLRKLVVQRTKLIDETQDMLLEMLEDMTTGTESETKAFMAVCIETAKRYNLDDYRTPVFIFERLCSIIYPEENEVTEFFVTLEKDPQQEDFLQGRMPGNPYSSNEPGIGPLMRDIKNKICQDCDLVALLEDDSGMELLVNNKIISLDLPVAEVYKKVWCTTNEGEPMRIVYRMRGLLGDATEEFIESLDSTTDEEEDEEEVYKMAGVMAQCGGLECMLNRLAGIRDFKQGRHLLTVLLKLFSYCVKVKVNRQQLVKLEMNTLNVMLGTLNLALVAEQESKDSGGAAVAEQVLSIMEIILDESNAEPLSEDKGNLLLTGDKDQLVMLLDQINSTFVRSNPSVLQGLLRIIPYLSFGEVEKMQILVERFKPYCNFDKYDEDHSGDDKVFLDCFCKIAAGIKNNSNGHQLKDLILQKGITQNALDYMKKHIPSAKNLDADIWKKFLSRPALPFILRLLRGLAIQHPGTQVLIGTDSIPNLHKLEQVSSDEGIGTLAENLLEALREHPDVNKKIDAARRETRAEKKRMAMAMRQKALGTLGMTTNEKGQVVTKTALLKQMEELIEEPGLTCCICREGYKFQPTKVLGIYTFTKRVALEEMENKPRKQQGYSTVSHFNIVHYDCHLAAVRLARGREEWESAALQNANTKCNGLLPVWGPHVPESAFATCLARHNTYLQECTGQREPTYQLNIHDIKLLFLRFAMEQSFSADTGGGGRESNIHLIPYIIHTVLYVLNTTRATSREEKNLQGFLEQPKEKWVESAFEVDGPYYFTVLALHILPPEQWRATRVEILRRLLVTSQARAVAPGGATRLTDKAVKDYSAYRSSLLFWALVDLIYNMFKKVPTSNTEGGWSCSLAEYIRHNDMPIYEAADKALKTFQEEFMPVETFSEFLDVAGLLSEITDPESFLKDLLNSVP
# UniProt P22695: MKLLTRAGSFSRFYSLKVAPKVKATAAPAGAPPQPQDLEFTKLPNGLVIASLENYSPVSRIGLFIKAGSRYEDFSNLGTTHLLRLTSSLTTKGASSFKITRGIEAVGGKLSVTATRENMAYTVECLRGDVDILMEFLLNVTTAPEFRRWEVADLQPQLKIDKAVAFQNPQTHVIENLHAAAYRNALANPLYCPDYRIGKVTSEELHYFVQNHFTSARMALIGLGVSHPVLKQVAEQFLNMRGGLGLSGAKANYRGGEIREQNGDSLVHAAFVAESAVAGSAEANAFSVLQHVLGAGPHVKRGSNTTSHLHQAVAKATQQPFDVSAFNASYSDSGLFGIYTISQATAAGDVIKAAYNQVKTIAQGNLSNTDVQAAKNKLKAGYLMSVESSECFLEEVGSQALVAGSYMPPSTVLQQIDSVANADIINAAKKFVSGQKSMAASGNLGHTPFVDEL
# UniProt P61960, whole entry: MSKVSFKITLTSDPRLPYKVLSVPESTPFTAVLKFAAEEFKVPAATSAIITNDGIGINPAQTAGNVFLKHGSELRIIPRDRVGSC
# UniProt P17480: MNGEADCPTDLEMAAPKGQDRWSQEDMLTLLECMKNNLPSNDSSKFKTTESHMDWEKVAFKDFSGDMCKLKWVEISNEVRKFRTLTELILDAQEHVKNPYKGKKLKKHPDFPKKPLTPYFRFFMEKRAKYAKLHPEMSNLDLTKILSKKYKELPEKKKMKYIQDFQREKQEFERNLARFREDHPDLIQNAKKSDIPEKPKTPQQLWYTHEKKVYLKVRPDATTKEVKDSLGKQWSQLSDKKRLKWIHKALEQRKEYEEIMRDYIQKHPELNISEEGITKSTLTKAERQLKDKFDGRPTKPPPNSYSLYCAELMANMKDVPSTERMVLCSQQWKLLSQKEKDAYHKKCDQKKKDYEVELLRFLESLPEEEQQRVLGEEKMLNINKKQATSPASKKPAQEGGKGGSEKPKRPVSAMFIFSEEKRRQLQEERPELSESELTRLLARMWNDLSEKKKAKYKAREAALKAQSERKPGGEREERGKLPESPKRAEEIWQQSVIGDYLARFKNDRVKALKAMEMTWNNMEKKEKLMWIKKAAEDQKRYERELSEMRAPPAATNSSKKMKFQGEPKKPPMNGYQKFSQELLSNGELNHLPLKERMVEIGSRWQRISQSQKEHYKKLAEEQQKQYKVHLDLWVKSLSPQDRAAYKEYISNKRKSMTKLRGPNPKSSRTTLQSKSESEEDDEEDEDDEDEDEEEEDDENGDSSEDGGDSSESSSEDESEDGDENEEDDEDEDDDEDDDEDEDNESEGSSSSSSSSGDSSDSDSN
# The other results are listed elsewhere or left out.
# Compound: COc1ccc(Cn2ccc3cc(C)c(C(=O)NO)cc32)cc1
# Assay: dose-dependent thermal stabilisation call (2D-TPP, DLPTP, 10% FDR) (binary (1 = stabilised)); higher = stabilised by the compound
# Settings: system: HL-60 intact cells; concentration range 0.04-10 µM
# Description: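 2D thermal proteome profiling in intact HL-60 cells treated with BRD-3811 (0, 0.04, 0.29, 2, 10 uM) for 90 min at 37 C, then heated 3 min at one of 12 temperatures (42-63.9 C). Soluble protein was quantified by TMT10 MS. The value is the DLPTP call of the paper: dose-dependent thermal stabilisation over all temperatures at 10% FDR (F-test of a dose-response against a flat model); one experiment, one call per tested protein.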
row,Target,dose-dependent thermal stabilisation call
1,TTC26,inactive: 0
2,TUSC2 (UniProt O75896),inactive: 0
3,UBR4 (UniProt Q5T4S7),inactive: 0
4,VCL (UniProt P18206),inactive: 0
5,UQCRB (UniProt P14927),inactive: 0
6,UQCRC2 (UniProt P22695),inactive: 0
7,WASF1 (UniProt Q92558),inactive: 0
8,UFM1 (UniProt P61960),inactive: 0
9,UBTF (UniProt P17480),inactive: 0
